Test results from patent US20210388102A1.
These are yes or no findings as the source states them, for the method shown. Some binding calls cover weakened binding; strength is not graded here.

Chains of the proteins cited; added tags and fusions are not shown. Lines headed by an entry give the natural chain unless they say otherwise; changes in a name come on top.
UniProt Q13443: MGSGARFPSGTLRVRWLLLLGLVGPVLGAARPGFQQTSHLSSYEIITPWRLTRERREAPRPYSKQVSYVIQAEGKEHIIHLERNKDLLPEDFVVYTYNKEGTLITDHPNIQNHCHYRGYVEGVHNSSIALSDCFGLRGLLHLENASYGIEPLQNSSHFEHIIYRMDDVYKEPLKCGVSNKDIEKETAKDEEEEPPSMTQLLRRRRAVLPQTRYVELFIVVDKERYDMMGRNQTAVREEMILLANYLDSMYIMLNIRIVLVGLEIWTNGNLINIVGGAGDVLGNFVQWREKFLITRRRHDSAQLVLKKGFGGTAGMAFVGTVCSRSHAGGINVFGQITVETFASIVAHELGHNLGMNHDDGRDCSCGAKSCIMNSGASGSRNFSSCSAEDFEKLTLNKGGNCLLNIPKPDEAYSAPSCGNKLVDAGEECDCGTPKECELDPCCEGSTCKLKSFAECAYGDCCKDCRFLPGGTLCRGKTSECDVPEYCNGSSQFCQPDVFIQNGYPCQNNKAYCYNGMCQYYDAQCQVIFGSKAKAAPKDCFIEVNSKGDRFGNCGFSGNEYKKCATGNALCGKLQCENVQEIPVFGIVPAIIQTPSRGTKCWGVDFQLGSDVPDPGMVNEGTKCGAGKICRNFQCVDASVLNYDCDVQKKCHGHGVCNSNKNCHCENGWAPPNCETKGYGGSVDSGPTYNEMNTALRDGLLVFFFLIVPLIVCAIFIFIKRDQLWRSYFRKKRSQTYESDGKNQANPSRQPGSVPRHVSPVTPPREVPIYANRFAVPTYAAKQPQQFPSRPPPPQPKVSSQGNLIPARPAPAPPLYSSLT

Legend:
[1] = biological target: cynomolgus monkey ADAM9 (cynoADAM9) on cells (cynomolgus monkey); assay: FACS (FIG. 2)
[2] = biological target: human ADAM9 (huADAM9) on cells (human) (UniProt Q13443); assay: FACS (FIG. 2)
[3] = biological target: human ADAM9 (huADAM9) on cells (human) (UniProt Q13443); assay: IHC, A498 Cell Pellet, 1.25 µg/mL
[4] = biological target: cynomolgus monkey ADAM9 (cynoADAM9) on cells (cynomolgus monkey); assay: FACS, 293-FT and CHO-K cells, goat anti-murine-PE
[5] = biological target: human ADAM9 (huADAM9) on cells (human) (UniProt Q13443); assay: FACS, 293-FT and CHO-K cells, goat anti-murine-PE
[6] = biological target: human ADAM9 (huADAM9) on cells (human) (UniProt Q13443); assay: cell staining (FACS), 293-FT and CHO-K cells transiently expressing huADAM9
[7] = biological target: cynomolgus monkey ADAM9 (cynoADAM9) on cells (cynomolgus monkey); assay: cell staining (FACS), 293-FT and CHO-K cells transiently expressing cynoADAM9
[8] = biological target: human ADAM9 (huADAM9) on cells (human) (UniProt Q13443); assay: FACS, CHO-K cells transiently expressing huADAM9; MAB-A then goat anti-murine-PE; yellow fluorescence (YLW-HLog)
[9] = biological target: human ADAM9 (huADAM9) on cells (human) (UniProt Q13443); assay: FACS, 293-FT cells transiently expressing huADAM9; MAB-A then goat anti-murine-PE; yellow fluorescence (YLW-HLog)
[10] = biological target: cynomolgus monkey ADAM9 (cynoADAM9) on cells (cynomolgus monkey); assay: FACS, CHO-K cells transiently expressing cynoADAM9; MAB-A then goat anti-murine-PE; yellow fluorescence (YLW-HLog)
[11] = biological target: cynomolgus monkey ADAM9 (cynoADAM9) on cells (cynomolgus monkey); assay: FACS, 293-FT cells transiently expressing cynoADAM9; MAB-A then goat anti-murine-PE; yellow fluorescence (YLW-HLog)
[12] = biological target: His-tagged soluble human ADAM9 (shADAM9-His) (human) (UniProt Q13443); assay: BIACORE
[13] = biological target: cynomolgus monkey ADAM9 (cynoADAM9) on cells (cynomolgus monkey); assay: FACS and ELISA
[14] = biological target: human ADAM9 (huADAM9) on cells (human) (UniProt Q13443); assay: IHC, A498 072210 cells, 5 µg/mL
[15] = biological target: cynomolgus monkey ADAM9 (cynoADAM9) on cells (cynomolgus monkey); assay: IHC, Cho-K Cyno #2 cells, 5 µg/mL
[16] = biological target: cynomolgus monkey ADAM9 (cynoADAM9) on cells (cynomolgus monkey); assay: IHC, Cho-K Cyno #16 cells, 5 µg/mL
[17] = biological target: human ADAM9 (huADAM9) on cells (human) (UniProt Q13443); assay: IHC, Cho-K/hu ADAM9.18 high expression P:1 cells, 5 µg/mL
[18] = biological target: human ADAM9 (huADAM9) on cells (human) (UniProt Q13443); assay: IHC, Cho-K/hu ADAM9.2 medium expression P:1 cells, 5 µg/mL

Measured: binding

B1: MAB-A (antibody, V domains shown)
VH: QVQLQQPGAELVKPGASVKLSCKASGYTFTSYWMHWVKQRPGQGLEWIGEIIPINGHTNYNEKFKSKATLTLDKSSSTAYMQLSSLASEDSAVYYCARGGYYYYGSRDYFDYWGQGTTLTVSS
VL: DIVLTQSPASLAVSLGQRATISCKASQSVDYDGDSYMNWYQQIPGQPPKLLIYAASDLESGIPARFSGSGSGTDFTLNIHPVEEEDAATYYCQQSHEDPFTFGGGTKLEIK
not listed: [12] | [13] | [14] | [15] | [16] | [17] | [18]
binds: all other assays above

B2: hMAB-A (2.3) (antibody, V domains shown)
VH: EVQLVESGGGLVKPGGSLRLSCAASGFTFSSYWMHWVRQAPGKGLEWVGEIIPIFGHTNYNEKFKSRFTISLDNSKNTLYLQMGSLRAEDTAVYYCARGGYYYYGSRDYFDYWGQGTTVTVSS
VL: DIVMTQSPDSLAVSLGERATISCRASQSVDYSGDSYMNWYQQKPGQPPKLLIYAASDLESGIPARFSGSGSGTDFTLTISSLEPEDFATYYCQQSHEDPFTFGQGTKLEIK
binds: [12] | [13] | [14] | [15] | [16] | [17] | [18]
